# PubChem BioAssay AID1259308 | NCATS, 2017
# Test: 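Genes whose loss raises luciferase production in HEK293 cells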 (primary screen)
# Cell system: human HEK293 embryonic kidney cells stably expressing firefly luciferase (HEK-CMV-Luc2-Hygro)
# Reagents: single siRNA against human genes, 0.8 pmol siRNA per well
# Time to read-out: 72 h
# Detection: 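Luciferase light (ONE-Glo) measured on one replicate plate set and viability (CellTiter-Glo) on the other, scaled to a negative control siRNA, with robust z-scores and luciferase per cell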
# Direction: total luciferase, z-score and total luciferase, % of control: higher = more reporter protein produced; luciferase per cell, z-score: higher = more reporter output per viable cell; viable cells, % of control: higher = more viable cells
# Hit rule: 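An siRNA counts as active if its total luciferase robust z-score exceeds 3; genes with two or more such siRNAs out of three were retested with fresh siRNAs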
# Meaning of the calls: active = raised luciferase; inactive = no rise
# Shown is one part, drawn at random, of about 59,000 deposited reagents. About 1,510 of them (2.6%) were called active. 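Calls use total luciferase alone and ignore viability, so some active siRNAs may act by altering cell number.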 Reagents against one gene are numbered here. No sequences are given here.
Gene,reagent no.,"total luciferase, z-score","total luciferase, % of control","luciferase per cell, z-score","viable cells, % of control",call
APBA3,1,-0.276,76.4,0.238,80.2,inactive
APBA3,2,0.122,84.3,0.489,82.8,inactive
APBA3,3,0.482,91.5,0.442,91,inactive
RASIP1,1,1.23,106,1.24,85.8,inactive
RASIP1,2,0.683,95.5,2.39,56.8,inactive
RASIP1,3,-0.975,62.5,-1.34,99.4,inactive
RPL27A,1,-2.22,37.7,-0.29,45.5,inactive
RPL27A,2,-2.31,36,0.512,35.2,inactive
RPL27A,3,-2.53,31.6,-1.23,48.8,inactive
BET1,1,0.0298,82.5,-0.11,94.9,inactive
BET1,2,0.775,97.3,0.853,86.9,inactive
BET1,3,-0.641,69.1,-0.199,81.4,inactive
CEP131,1,-0.299,75.9,-0.0686,86.4,inactive
CEP131,2,-1.52,51.7,-1.55,86.8,inactive
CEP131,3,1.07,103,1.54,76.8,inactive
EFR3B,1,-0.488,72.2,-0.543,93.1,inactive
EFR3B,2,-0.015,81.6,-0.267,97.8,inactive
EFR3B,3,-0.376,74.4,-0.22,88.1,inactive
PEX11A,1,0.263,87.1,1.28,69.4,inactive
PEX11A,2,0.647,94.7,0.484,93.2,inactive
PEX11A,3,0.478,91.4,-0.516,117,inactive
MYT1L-AS1,1,-0.128,79.3,-0.747,108,inactive
MYT1L-AS1,2,0.644,94.7,0.148,102,inactive
MYT1L-AS1,3,-1.25,57.1,-1.96,107,inactive
RNF170,1,-0.206,77.8,0.902,68.5,inactive
RNF170,2,0.602,93.9,0.473,92.6,inactive
RNF170,3,0.663,95.1,1.05,80.6,inactive
RAB12,1,-1.15,59.1,-1.04,86.9,inactive
RAB12,2,-0.633,69.3,-0.821,96.1,inactive
RAB12,3,0.174,85.3,0.253,89.2,inactive
HMGN2P16,1,1.55,113,1.45,86,inactive
HMGN2P16,2,-1.36,54.8,-0.444,68.8,inactive
HMGN2P16,3,0.235,86.6,-0.212,102,inactive
BIRC5,1,-0.911,63.8,-0.386,78.9,inactive
BIRC5,2,-1.88,44.5,-1.67,77.2,inactive
BIRC5,3,-1.68,48.4,-2.82,114,inactive
HOGA1,1,0.448,90.8,-0.328,111,inactive
HOGA1,2,-0.46,72.7,0.0325,80.6,inactive
HOGA1,3,-0.0151,81.6,-0.807,113,inactive
ACKR4,1,0.547,92.8,0.616,88.2,inactive
ACKR4,2,-1.21,57.7,-1.96,108,inactive
ACKR4,3,-1.55,51,-2.01,96.6,inactive
NDOR1,1,0.788,97.6,0.529,94.8,inactive
NDOR1,2,2.57,133,2.45,77.9,inactive
NDOR1,3,0.0794,83.5,0.775,76,inactive
NDOR1,4,0.181,85.5,-0.159,99.6,inactive
NDOR1,5,-1.49,52.3,-0.72,70.6,inactive
NDOR1,6,0.331,88.5,0.0784,96.8,inactive
RNF112,1,1.66,115,1.38,89.3,inactive
RNF112,2,0.135,84.6,2.67,46.8,inactive
RNF112,3,-0.456,72.8,0.849,65.1,inactive
ARL1,1,0.634,94.5,0.774,86.1,inactive
ARL1,2,-0.868,64.6,-1.7,113,inactive
ARL1,3,0.297,87.8,-0.496,112,inactive
KANSL2,1,-1.16,58.7,-0.958,84.4,inactive
KANSL2,2,-1.07,60.6,-1.27,94.6,inactive
KANSL2,3,0.0522,82.9,-0.167,96.8,inactive
